Results published in the supplement of paper PMC8728848.
The list shows a part of the results.

Columns and labels:
Test in all cases: glycan array binding signal (z-score within array); higher = stronger binding
Conditions in all cases: glycan notation: IUPAC condensed, linker removed
[1] = target: Gal(b1-3)GlcNAc(b1-2)Man(a1-3)[GlcNAc(b1-4)][Gal(b1-3)GlcNAc(b1-2)Man(a1-6)]Man(b1-4)GlcNAc(b1-4)GlcNAc
Method in brief: (§1)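 The binding signal is a Z-score computed within each array and averaged over linkers. Arrays of the same protein sequence at different concentrations or buffers were also averaged together. Data originate from 3228 arrays in the Consortium for Functional Glycomics database, kept only where the protein sequence was available.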

[2] = target: Gal(b1-3)GlcNAc(b1-2)[Gal(b1-3)GlcNAc(b1-6)]Man(a1-6)[Gal(b1-3)GlcNAc(b1-2)Man(a1-3)]Man(b1-4)GlcNAc(b1-4)GlcNAc
Method in brief: as §1

[3] = target: Gal(b1-3)GlcNAc(b1-3)Gal(b1-3)GlcNAc
Method in brief: as §1

[4] = target: Gal(b1-3)GlcNAc(b1-3)Gal(b1-4)Glc
Method in brief: as §1

[5] = target: Gal(b1-3)GlcNAc(b1-3)Gal(b1-4)GlcNAc
Method in brief: as §1

[6] = target: Gal(b1-3)GlcNAc(b1-3)Gal(b1-4)GlcNAc(b1-2)Man(a1-3)[Gal(b1-3)GlcNAc(b1-3)Gal(b1-4)GlcNAc(b1-2)Man(a1-6)]Man(b1-4)GlcNAc(b1-4)GlcNAc
Method in brief: as §1

[7] = target: Gal(b1-3)GlcNAc(b1-3)Gal(b1-4)GlcNAc(b1-2)[Gal(b1-3)GlcNAc(b1-3)Gal(b1-4)GlcNAc(b1-6)]Man(a1-6)[Gal(b1-3)GlcNAc(b1-3)Gal(b1-4)GlcNAc(b1-2)Man(a1-3)]Man(b1-4)GlcNAc(b1-4)[Fuc(a1-6)]GlcNAc
Method in brief: as §1

[8] = target: Gal(b1-3)GlcNAc(b1-3)Gal(b1-4)GlcNAc(b1-3)Gal(b1-4)GlcNAc(b1-2)[Gal(b1-3)GlcNAc(b1-3)Gal(b1-4)GlcNAc(b1-3)Gal(b1-4)GlcNAc(b1-6)]Man(a1-6)[Gal(b1-3)GlcNAc(b1-3)Gal(b1-4)GlcNAc(b1-3)Gal(b1-4)GlcNAc(b1-2)Man(a1-3)]Man(b1-4)GlcNAc(b1-4)[Fuc(a1-6)]GlcNAc
Method in brief: as §1

[9] = target: Gal(b1-3)GlcNAc(b1-3)Gal(b1-4)GlcNAc(b1-6)[Gal(b1-3)GlcNAc(b1-3)]Gal(b1-4)Glc
Method in brief: as §1

[10] = target: Gal(b1-3)GlcNAc(b1-3)Gal(b1-4)[Fuc(a1-3)]GlcNAc
Method in brief: as §1

[11] = target: Gal(b1-3)GlcNAc(b1-3)Gal(b1-4)[Fuc(a1-3)]GlcNAc(b1-6)[Gal(b1-3)GlcNAc(b1-3)]Gal(b1-4)Glc
Method in brief: as §1

[12] = target: Gal(b1-3)GlcNAc(b1-3)GalNAc
Method in brief: as §1

[13] = target: Gal(b1-3)GlcNAc(b1-6)Gal(b1-4)GlcNAc
Method in brief: as §1

[14] = target: Gal(b1-3)GlcNAc(b1-6)GalNAc
Method in brief: as §1

[15] = target: Gal(b1-3)GlcNAc(b1-6)[Gal(b1-3)]GalNAc
Method in brief: as §1

Gal(b1-3)GlcNAc6S = target: Gal(b1-3)GlcNAc6S
Method in brief: as §1

[16] = target: Gal(b1-3)[Fuc(a1-4)]GlcNAc
Method in brief: as §1

[17] = target: Gal(b1-3)[Fuc(a1-4)]GlcNAc(b1-2)Man
Method in brief: as §1

[18] = target: Gal(b1-3)[Fuc(a1-4)]GlcNAc(b1-2)Man(a1-3)[Gal(b1-3)[Fuc(a1-4)]GlcNAc(b1-2)Man(a1-6)]Man(b1-4)GlcNAc(b1-4)[Fuc(a1-6)]GlcNAc
Method in brief: as §1

[19] = target: Gal(b1-3)[Fuc(a1-4)]GlcNAc(b1-3)Gal(b1-3)[Fuc(a1-4)]GlcNAc
Method in brief: as §1

[20] = target: Gal(b1-3)[Fuc(a1-4)]GlcNAc(b1-3)Gal(b1-4)[Fuc(a1-3)]GlcNAc
Method in brief: as §1

[21] = target: Gal(b1-3)[Fuc(a1-4)]GlcNAc(b1-6)GalNAc
Method in brief: as §1

[22] = target: Gal(b1-3)[GlcNAc(b1-6)]GalNAc
Method in brief: as §1

[23] = target: Gal(b1-3)[Neu5Ac(a2-6)]GalNAc
Method in brief: as §1

[24] = target: Gal(b1-3)[Neu5Ac(a2-6)]GlcNAc(b1-4)Gal(b1-4)Glc
Method in brief: as §1

[25] = target: Gal(b1-3)[Neu5Ac(b2-6)]GalNAc
Method in brief: as §1

Gal(b1-4)Gal = target: Gal(b1-4)Gal
Method in brief: as §1

[26] = target: Gal(b1-4)GalNAc(a1-3)[Fuc(a1-2)]Gal(b1-4)GlcNAc
Method in brief: as §1

[27] = target: Gal(b1-4)GalNAc(b1-3)[Fuc(a1-2)]Gal(b1-4)GlcNAc
Method in brief: as §1

Gal(b1-4)Glc = target: Gal(b1-4)Glc
Method in brief: as §1

B1: GroEL (Clostridium difficile), Q18CT5 (protein)
chain: MAKEIKFSEETRRALEAGVNKLADTVKVTLGPKGRNVILDKKFGSPLITNDGVTIAKEIELEDRFENMGAQLVKEVATKTNDVAGDGTTTATVLAQAIIREGLKNVTAGANPILLRKGIQKAVTVAVEELKNQSRIVETQEAISQVASISAGDEEVGKLIAEAMEIVGKDGVITVEESQTMNTELDAVEGMQFDRGFVSAYMVTDVDKMEAVLNDPYILITDKKISNIQELLPVLEQIVQQGKKLLIIAEDVEGEALSTLVVNKLRGTFDVVAVKAPGFGDRRKEMLQDIAILTGAQVISEELGYDLKEADLSMLGRASSVKVTKESTTIVDGSGDKKAIEDRVTQIKHQVEQTTSDFDREKLMERLAKLAGGVAVVKVGAATEVELKERKLRIEDALNATRAAVEEGIVAGGGTAFVSVIPAIGTLIESLEGEVKLGAQIVKKALEEPLRQIAINAGLEGAVIVQNVVNSEAETGFDALNEKYVNMIEAGIVDPTKVSRSALQNAASIASTFLTTEAAVADLPEKEDAGMPGMGGGMPGMM
- glycan array binding signal (z-score) [1]: 1.57
- glycan array binding signal (z-score) [2]: -1.3
- glycan array binding signal (z-score) [3]: -0.943
- glycan array binding signal (z-score) [4]: -0.417
- glycan array binding signal (z-score) [5]: -0.178
- glycan array binding signal (z-score) [6]: 0.567
- glycan array binding signal (z-score) [7]: 2.26
- glycan array binding signal (z-score) [8]: 0.368
- glycan array binding signal (z-score) [9]: -0.643
- glycan array binding signal (z-score) [10]: 1.03
- glycan array binding signal (z-score) [11]: -0.967
- glycan array binding signal (z-score) [12]: -0.375
- glycan array binding signal (z-score) [13]: -0.508
- glycan array binding signal (z-score) [14]: 0.343
- glycan array binding signal (z-score) [15]: -0.809
- glycan array binding signal (z-score) (Gal(b1-3)GlcNAc6S): 0.344
- glycan array binding signal (z-score) [16]: -0.919
- glycan array binding signal (z-score) [17]: 0.952
- glycan array binding signal (z-score) [18]: 2.34
- glycan array binding signal (z-score) [19]: 0.963
- glycan array binding signal (z-score) [20]: 0.108
- glycan array binding signal (z-score) [21]: 1.37
- glycan array binding signal (z-score) [22]: 0.134
- glycan array binding signal (z-score) [23]: -0.592
- glycan array binding signal (z-score) [24]: -0.031
- glycan array binding signal (z-score) [25]: 1.46
- glycan array binding signal (z-score) (Gal(b1-4)Gal): 0.494
- glycan array binding signal (z-score) [26]: -0.039
- glycan array binding signal (z-score) [27]: 0.291
- glycan array binding signal (z-score) (Gal(b1-4)Glc): 0.51
